Data on six sequences can be found in PMC2631628.

Amino acid sequences for entries named in this document (tags omitted). A change or cut given only in a name is not applied to a line headed by its entry.
UniProt P14866: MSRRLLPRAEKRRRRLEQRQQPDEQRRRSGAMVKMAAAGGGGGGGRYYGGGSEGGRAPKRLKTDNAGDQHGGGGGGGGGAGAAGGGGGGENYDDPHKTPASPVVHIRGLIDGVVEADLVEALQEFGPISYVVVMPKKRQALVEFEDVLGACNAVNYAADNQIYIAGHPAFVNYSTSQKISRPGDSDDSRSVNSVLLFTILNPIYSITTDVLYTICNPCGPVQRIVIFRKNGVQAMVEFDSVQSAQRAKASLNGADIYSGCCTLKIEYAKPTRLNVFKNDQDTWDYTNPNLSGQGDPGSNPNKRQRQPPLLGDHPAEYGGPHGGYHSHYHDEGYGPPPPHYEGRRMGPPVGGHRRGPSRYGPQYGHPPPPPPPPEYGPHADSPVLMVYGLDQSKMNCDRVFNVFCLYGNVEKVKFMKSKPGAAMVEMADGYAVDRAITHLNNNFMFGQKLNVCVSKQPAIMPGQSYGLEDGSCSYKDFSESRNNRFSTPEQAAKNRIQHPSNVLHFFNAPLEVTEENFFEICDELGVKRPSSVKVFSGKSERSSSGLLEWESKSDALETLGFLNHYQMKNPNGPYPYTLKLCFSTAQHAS
UniProt P09651: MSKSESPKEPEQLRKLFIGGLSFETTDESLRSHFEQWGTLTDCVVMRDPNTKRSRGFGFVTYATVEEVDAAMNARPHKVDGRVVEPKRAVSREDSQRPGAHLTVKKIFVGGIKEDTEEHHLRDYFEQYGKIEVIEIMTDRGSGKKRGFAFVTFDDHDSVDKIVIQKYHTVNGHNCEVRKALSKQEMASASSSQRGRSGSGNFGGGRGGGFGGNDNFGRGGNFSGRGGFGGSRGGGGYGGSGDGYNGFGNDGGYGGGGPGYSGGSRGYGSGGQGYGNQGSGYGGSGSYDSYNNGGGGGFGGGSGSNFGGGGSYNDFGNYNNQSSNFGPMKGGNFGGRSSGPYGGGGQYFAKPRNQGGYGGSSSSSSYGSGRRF
UniProt P26599: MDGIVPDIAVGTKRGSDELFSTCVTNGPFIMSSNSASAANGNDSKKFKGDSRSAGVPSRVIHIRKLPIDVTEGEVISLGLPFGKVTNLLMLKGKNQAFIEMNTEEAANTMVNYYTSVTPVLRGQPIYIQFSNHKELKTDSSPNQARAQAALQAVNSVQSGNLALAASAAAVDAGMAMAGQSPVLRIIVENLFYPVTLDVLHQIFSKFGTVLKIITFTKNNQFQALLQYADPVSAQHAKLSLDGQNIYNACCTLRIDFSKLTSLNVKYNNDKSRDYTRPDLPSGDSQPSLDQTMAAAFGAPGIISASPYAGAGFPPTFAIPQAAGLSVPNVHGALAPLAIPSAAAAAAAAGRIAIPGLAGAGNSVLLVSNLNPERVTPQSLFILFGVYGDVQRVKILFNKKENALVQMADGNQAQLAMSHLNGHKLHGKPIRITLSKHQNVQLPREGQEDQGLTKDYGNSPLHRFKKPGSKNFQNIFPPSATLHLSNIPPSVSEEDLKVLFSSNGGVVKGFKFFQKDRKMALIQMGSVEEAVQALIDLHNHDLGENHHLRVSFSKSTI

Holding throughout (assay): pull-down
What all share (conditions): coupled to agarose beads, protein in an extract

The target in series [1] is hnRNP L (HeLa nuclear extract) (human (HeLa)) (UniProt P14866).
Series [2] deals with hnRNP A1 (HeLa nuclear extract) (human (HeLa)) (UniProt P09651).
The target in series [3] is PTB (HeLa nuclear extract) (human (HeLa)) (UniProt P26599).

For at least one entry, the source does not settle the construct or the ends of the probe. At least one result comes from cells or an extract, where the contact may be indirect. For some assays here: A negative result means that nothing was seen under these conditions.

Turning to “GUUGUAUAGUUUUAGGGUCACACCCACCACUGGGAGAUAACUAUACAAUC [let-7a-1 loop]”, the binding result in series [1] and in series [2] was “binds” each time.
Turning to “AGUGCUGAUGCUGUCUAUUCUAAAGGUACAGUACUG [miR-101-1 loop]”, the binding result in series [3] and in series [2] was “binds” in each case.
As for “GACUGAUGUUGACUGUUGAAUCUCAUGGCAACACCAGUCGA [miR-21 loop]”, the binding result in series [2] is given as “no binding”.
Same read-out and setting: the same measure for “AACGUAGGCGUUAUGAUUUCUGACCUAUGUA [miR-379 loop]”: “no binding”.
Same read-out and setting: the same measure for “AAUAUUGGCGUUAAGAUUCUAAAAUUAUCUCCAGUAUUAA [miR-16-1 loop]”: “no binding”; for “UUGCACUACAAGAAGAAUGUAGUUGUGCAAAU [miR-19a loop]”: “no binding”.
